Measured values as given in patent US20150051246A1 (priority 2013, published 2015).

Test system: male C57BL/6NCrl mice
Assay: Object Location Task (OLT), spatial memory, 24 h retention interval
Format: in vivo
Details: 3 h after T1
Source text: The objective of this study was to evaluate the cognitive improvement effects of Roflumilast on spatial memory employing Object Location Task (OLT) in male C57BL/6NCrl mice. Roflumilast was compared with data of the already established PDE4 inhibitor Rolipram in the same model.
Twenty-four 7 month-old male C57BL/6NCrl mice (Charles River, L'Arbresle, France) were used (average body weights: 27.6 g). The animals were kept under a 12/12-hour light/dark cycle (lights on from 07.00 pm to 07.00 am) with free access to food and water. All testing was done between 09.00 am and maximally 06.00 pm.
Both rolipram (Sigma-Aldrich St. Louis, USA; MW 275.34) and roflumilast (Biocrea, Radebeul, Germany; MW 403.21) were dissolved in dimethylsulfoxide (DMSO) and kept at 4° C.; this stock solution was used for further dilutions in 0.5% methylcellulose. Each of rolipram and roflumilast is used in form of its free base. All injected solutions consisted of 0.5% methylcellulose with a fixed DMSO percentages (1.2%) (vehicle).
For the Object Location Task (OLT), doses of 0.01 mg/kg, 0.03 mg/kg and 0.1 mg/kg of Rolipram or Roflumilast or vehicle were administered subcutaneously (s.c.). Based on previous findings, PDE4 inhibitor single administration was performed 3 hours after the first trial as this has an optimum effect on object memory performance. The injection volume was 5 μl/g.
The OLT apparatus consisted of a circular arena, 40 cm in diameter. Half of the 40 cm transparent polyvinyl chloride wall was covered from the outside with white paper. Two objects were placed symmetrically about 10 cm away from the wall on the separation line, between the transparent and covered side of the arena. Four different sets of objects were available: (1) a cone made of brass (maximal diameter 6 cm and total height 3.8 cm), (2) a transparent glass bottle (diameter 2.7 cm, height 8.5 cm) filled with sand and water, (3) a massive metal cube (2.5 cm×5 cm×7.5 cm) with two holes (diameter 1.5 cm), and (4) a massive aluminum cube with a tapering top (4.5 cm×4.5 cm×8.5 cm).
A testing session comprised two trials of 4 minutes. Before each trial, mice were placed in an empty Makrolon cage (incubation cage) for the same amount of time as the trial (4 min). During the first trial (T1), two identical objects were placed symmetrically about 10 cm away from the wall on the separation line between the transparent and covered side of the arena. After the first exploration period of 4 min, the mouse was put back in its home cage. Mice then received treatment at 3 hours post T1. Subsequently, after a predetermined delay interval (24 h), the mouse was placed in the apparatus for the second trial of 4 min (T2). Two identical objects as in T1 were used; one object was placed in the previously used position, whereas the other was placed in a novel position. The novel position of the object could either be a fixed distance towards the front or a fixed distance towards the back of the arena for both objects. The times spent exploring each object during T1 and T2 were recorded manually using a personal computer. All objects and locations were used in a balanced manner to exclude possible object and/or location preferences. To avoid olfactory cues, the objects were thoroughly cleaned with 70% ethanol after each trial. The testing order of conditions was determined randomly.
The measurements reflected the time spent by the mice in exploring each object during T1 and T2. The time spent in exploring the two identical samples in T1 were represented by ‘a1’ and ‘a2’, respectively. The time spent in exploring the sample and the new object in T2 were represented by ‘a’ and ‘b’, respectively. From these exploration times the following variables were calculated: e1, e2, and d2 (Table 1). The d2 index is a relative measure of discrimination corrected for exploratory activity. […]

SMILES	e1, total exploration time during T1 (0.01 mg/kg s.c.)	e2, total exploration time during T2 (0.01 mg/kg s.c.)	e1, total exploration time during T1 (0.03 mg/kg s.c.)	e2, total exploration time during T2 (0.03 mg/kg s.c.)	e1, total exploration time during T1 (0.1 mg/kg s.c.)	e2, total exploration time during T2 (0.1 mg/kg s.c.)
COc1ccc(C2CNC(=O)C2)cc1OC1CCCC1 (stereo not drawn) [rolipram]	15.58 (0.95) s	12.99 (0.84) s	15.45 (1.35) s	13.56 (0.95) s	15.82 (1.03) s	12.29 (0.08) s
O=C(Nc1c(Cl)cncc1Cl)c1ccc(OC(F)F)c(OCC2CC2)c1 [roflumilast, N-(3,5-dichloropyridin-4-yl)-3-cyclopropylmethoxy-4-difluoromethoxybenzamide]	15.95 (1.11) s	14.13 (1.22) s	15.62 (1.37) s	16.13 (1.18) s	17.51 (1.36) s	13.73 (1.11) s
